{"source": "PubChem BioAssay AID504834", "about": "(National Center for Advancing Translational Sciences (NCATS), 2011)", "note": "Where “and” joins values, the source holds several entries; their conditions need not be identical. Identical values can stand only once. Hit rate of the full screen: of about 320,000 compounds, about 22,000 (6.9%) were called active. Inconclusive means that the source gave no clear call. Such entries were picked first, then a sample of the others. Calls come from the whole dose curve; as a rule, active = well fitted inhibition curve with a large enough effect; inconclusive = small, poorly fitted or top-dose-only effect, or another doubt; inactive = no such curve, though single readings can be large or run the other way. Where the call is inconclusive, the potency comes from a doubtful curve fit. Potency is the fitted concentration of half-maximal effect.", "data": [{"experiment": "Primary qHTS for delayed death inhibitors of the malarial parasite plastid, 96 hour incubation", "conditions": "P. falciparum luciferase reporter growth; series mostly up to 28.7 µM", "procedure,_shortened": "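Infected RBCs, 2% Hct / 0.05% parasitemia final; luciferase-reporter P. falciparum; cpd 96 h, 37 C, 5% CO2; luciferase detection reagent; luminescence.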", "values": [{"compound": "Cc1ccc(/C=N/NC(=O)Cn2nnc(N)n2)cc1", "Potency": "inactive"}, {"compound": "Cc1cc(NC(=S)Nc2cccc3ccccc23)n[nH]1", "Potency": "inconclusive: 0.294 µM [inhibitor, partial curve, poor fit]"}, {"compound": "Cc1csc(SCC(=O)NCc2cccs2)n1", "Potency": "inconclusive: 18.5 µM [inhibitor, single point]"}, {"compound": "CSc1nnc(-c2sc3cc(C(F)(F)F)cnc3c2-c2ccccc2)n1C", "Potency": "active: 6.57 µM"}, {"compound": "Cc1ccc(S(=O)(=O)NN2C(=O)/C(=C\\c3ccc(Cl)cc3)SC2=S)cc1", "Potency": "inactive"}, {"compound": "O=C(NC1CCN(C(=O)NCc2ccccc2)CC1)c1ccccc1", "Potency": "inactive"}, {"compound": "CCCN(CCC)C(=O)C1CCCN(S(=O)(=O)c2ccc3c(c2)oc(=O)n3C)C1", "note": "(stereo unspecified)", "Potency": "inconclusive: 1.85 µM [inhibitor, full curve]"}, {"compound": "CCCCN(C)C(=O)c1nc2ccccn2c1CN1CCN(C(=O)c2cccs2)CC1", "Potency": "inconclusive: 18.5 µM [inhibitor, single point]"}, {"compound": "COc1ccc(CN(C)Cc2nc3scc(-c4ccccc4)c3c(=O)[nH]2)cc1OC", "Potency": "inconclusive: 11.7 µM [inhibitor, single point]"}, {"compound": "CCOC(=O)N1CCN(C(=O)c2oc3ccc(S(=O)(=O)N4CCCCCC4)cc3c2C)CC1", "Potency": "inconclusive: 4.15 µM [inhibitor, single point]"}, {"compound": "CNC(=O)C(=O)NCC1OCCN1S(=O)(=O)c1ccc2c(c1)OCCO2", "note": "(stereo unspecified)", "Potency": "inactive"}, {"compound": "O=C(Nc1ccccc1-c1ccccc1)NC1CCN(CC(=O)N2CCOCC2)CC1", "Potency": "inactive"}, {"compound": "Cc1ccccc1NC(=S)NC1(C)CCS(=O)(=O)C1", "note": "(stereo unspecified)", "Potency": "inactive"}, {"compound": "Cc1[nH]c2ccccc2c1/C=N/Nc1nncn1N", "Potency": "inconclusive: 18.5 µM [inhibitor, single point]"}, {"compound": "COc1ccc(C(CNC(=O)C(CCSC)NC(=O)c2ccccc2OC)N2CCCCC2)cc1", "note": "(stereo unspecified)", "Potency": "active: 11.7 µM"}, {"compound": "NC(=O)C[n+]1ccc(/C=N/O)cc1", "Potency": "inconclusive: 3.7 µM [inhibitor, partial curve, poor fit]"}, {"compound": "Cc1nc(-c2ccc(S(=O)(=O)N3CCN(C4c5ccccc5-c5ccccc54)CC3)s2)cs1", "Potency": "inconclusive: 10.4 µM [inhibitor, partial curve, poor fit]"}, {"compound": "Cc1cccc(C(=O)NCc2nnc(SCc3ccc(F)cc3)n2C)c1", "Potency": "inconclusive: 18.5 µM [inhibitor, single point]"}, {"compound": "Cc1ccc2nc3c(cc(C(=O)NCCCn4ccnc4)n3C)c(=O)n2c1", "Potency": "inconclusive: 18.5 µM [inhibitor, single point]"}, {"compound": "O=c1c2cn(Cc3ccc(F)cc3)c3ccccc3c-2nn1Cc1ccc(F)cc1", "Potency": "inconclusive: 1.85 µM [inhibitor, full curve]"}, {"compound": "N#C/C(=C/c1ccc(N2CCOCC2)o1)c1ccc(Br)cc1", "Potency": "active: 5.22 µM"}, {"compound": "CCOc1ccc(OCC)c(NC(=O)CN(c2ccc(C)cc2)S(=O)(=O)c2c(C)noc2C)c1", "Potency": "inactive"}, {"compound": "CC1(C)CC(=O)C2=C(C1)Nc1ccccc1N=C2", "Potency": "inconclusive: 18.5 µM [inhibitor, single point]"}, {"compound": "CCCCCCCCCCCCCCC[C@H](O)[C@H](N)CO", "Potency": "inconclusive: 15.1 µM [inhibitor, single point]"}, {"compound": "COc1cc(CC(=O)Nc2ccccc2N2CCCCC2)cc(OC)c1OC", "Potency": "inconclusive: 10.4 µM [inhibitor, single point]"}, {"compound": "CCC1=C2CC[C@H]3C(=O)N(CC)C(=O)[C@H]3[C@H]2[C@@]2(Cc3ccccc3)C(=NCc3ccccc3)OC(=O)N2C1=O", "Potency": "inconclusive: 11.7 µM [inhibitor, single point]"}, {"compound": "Cn1c(=O)c2c(nc(SCC(=O)Nc3ccccc3N3CCCCC3)n2C)n(C)c1=O", "Potency": "inactive"}, {"compound": "CC(C)(C)NC(=O)NC(=O)CN1CCN(c2cccc(Cl)c2)CC1", "Potency": "inconclusive: 18.5 µM [inhibitor, single point]"}, {"compound": "COc1cc2c(cc1OC)C(C)N(C(=O)Cn1ncc3c1-c1ccccc1OC3)CC2", "note": "(stereo unspecified)", "Potency": "inconclusive: 11.7 µM [inhibitor, partial curve, poor fit]"}, {"compound": "CCC(=O)Nc1cccc(-c2csc(-c3ccccc3)n2)c1", "Potency": "inactive"}, {"compound": "CCOc1ccc(NC(=O)C2CCCN(S(=O)(=O)c3c(C)n[nH]c3C)C2)cc1", "note": "(stereo unspecified)", "Potency": "inconclusive: 10.4 µM [inhibitor, single point]"}, {"compound": "Cc1cccn2c(=O)c3cc(C#N)c(=O)n(CC4CCCO4)c3nc12", "note": "(stereo unspecified)", "Potency": "inconclusive: 4.15 µM [inhibitor, partial curve, poor fit]"}, {"compound": "Cc1ccccc1C(OCC(O)CN1CCCCC1CCO)c1ccccc1", "note": "(stereo unspecified)", "Potency": "inactive"}, {"compound": "CCOc1ccc(C2C(C(=O)c3ccc(C)o3)=C(O)C(=O)N2Cc2cccnc2)cc1", "note": "(stereo unspecified)", "Potency": "inconclusive: 20.8 µM [inhibitor, single point]"}, {"compound": "CC(C)Cn1cnc2c1c(=O)n(C)c(=O)n2C", "Potency": "inconclusive: 928 nM [inhibitor, full curve, poor fit] and inconclusive: 4.15 µM [inhibitor, partial curve, poor fit]"}, {"compound": "CCOc1ccccc1NC(=O)C1CCCN(S(=O)(=O)c2ccc3c(c2)C(C)(C)C(=O)N3C)C1", "note": "(stereo unspecified)", "Potency": "inactive"}]}]}
